Measured values taken from paper PMC11513602.
No constants are given. Whether binding was seen depends on the method and setting. In cells and extracts the contact can be indirect. Some binding calls cover weakened binding; strength is not graded here. Where a sequence is shown, tags or fusion partners need not be part of it.

Amino acid sequences for entries named in this document (tags omitted).
UniProt P40763: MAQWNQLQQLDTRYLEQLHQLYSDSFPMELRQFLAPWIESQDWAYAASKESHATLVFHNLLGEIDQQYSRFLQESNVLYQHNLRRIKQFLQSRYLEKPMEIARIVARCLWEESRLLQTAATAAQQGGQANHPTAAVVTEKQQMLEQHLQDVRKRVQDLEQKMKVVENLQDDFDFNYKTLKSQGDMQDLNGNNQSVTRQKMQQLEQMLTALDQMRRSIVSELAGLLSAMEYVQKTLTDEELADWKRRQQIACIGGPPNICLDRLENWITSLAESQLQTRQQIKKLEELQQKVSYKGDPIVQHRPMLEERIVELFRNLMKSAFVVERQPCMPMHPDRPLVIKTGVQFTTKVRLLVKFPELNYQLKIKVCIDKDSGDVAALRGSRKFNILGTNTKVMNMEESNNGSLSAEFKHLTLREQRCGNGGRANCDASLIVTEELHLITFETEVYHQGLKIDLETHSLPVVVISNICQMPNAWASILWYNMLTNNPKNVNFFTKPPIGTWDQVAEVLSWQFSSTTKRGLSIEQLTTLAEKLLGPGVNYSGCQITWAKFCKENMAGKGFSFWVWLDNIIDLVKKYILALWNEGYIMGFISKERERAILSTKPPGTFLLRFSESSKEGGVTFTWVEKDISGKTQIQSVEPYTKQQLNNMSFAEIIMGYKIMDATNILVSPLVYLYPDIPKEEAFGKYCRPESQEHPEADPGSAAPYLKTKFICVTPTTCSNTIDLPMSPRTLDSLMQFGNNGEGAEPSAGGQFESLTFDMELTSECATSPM

Target: T1, Ubiquitin specific protease 21 (HA-USP21) (UniProt Q9UK80)
T1 sequence: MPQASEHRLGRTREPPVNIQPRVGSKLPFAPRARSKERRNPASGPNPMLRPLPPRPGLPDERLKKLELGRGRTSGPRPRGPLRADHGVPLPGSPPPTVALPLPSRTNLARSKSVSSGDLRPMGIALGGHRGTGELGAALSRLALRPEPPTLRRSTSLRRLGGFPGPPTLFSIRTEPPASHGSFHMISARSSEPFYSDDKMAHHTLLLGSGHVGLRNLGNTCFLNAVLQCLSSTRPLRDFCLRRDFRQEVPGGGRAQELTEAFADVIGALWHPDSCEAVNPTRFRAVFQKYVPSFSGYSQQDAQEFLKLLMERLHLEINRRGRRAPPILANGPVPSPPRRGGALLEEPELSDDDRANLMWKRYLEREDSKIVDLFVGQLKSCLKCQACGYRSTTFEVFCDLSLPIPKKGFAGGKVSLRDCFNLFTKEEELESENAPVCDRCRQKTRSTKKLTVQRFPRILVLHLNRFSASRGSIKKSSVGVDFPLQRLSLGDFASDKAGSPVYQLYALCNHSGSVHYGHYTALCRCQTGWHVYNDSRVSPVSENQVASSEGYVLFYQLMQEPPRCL
Assay: co-IP; HEK293T cotransfected with HA-USP21 and Myc-STAT3 for 48 h; lysis buffer 50 mM Tris-HCl pH 7.5, 150 mM NaCl, 0.5% NP40, 1 mM DTT, 10 mM NEM; whole cell lysates incubated overnight at 4 °C with anti-HA beads; three washes; immunoblotting

binding: binds
Substance: Signal transducer and activator of transcription 3 (Myc-STAT3) (from UniProt P40763 1-770)
